Measured values reported in patent US9126933B2, “Soft PDE4 inhibitors” (Amakem NV, priority 2011, dated 2015).

Test: in vitro
Details: PAMPA, pH 7.4

- Papp at 5 h, 10 μM: 0.17 ×10⁻⁶ cm/s
SMILES: CC(C)NCC(O)COc1ccc(CC(N)=O)cc1 (stereo not shown) [Atenolol]
